# Values of other authors in patent US11173140B2, “Dosing regimens of PKC activators” (COGNITIVE RESEARCH ENTERPRISES, INC., priority 2015, dated 2021).
# At least one compound was matched to its structure with a doubt left.
# What was measured:
# PKC = settings: K562 cells; cited from earlier work
# [1] = system: cyclin dependent kinase 2 (Cdk2); settings: achieved at S ng/ml; cited from earlier work
compound,measurement,setting,value
C=C(C)[C@@]12C[C@@H](COC(=O)c3ccccc3)[C@@]34OC5(O[C@@H]1[C@@H]3[C@@H]1O[C@]1(CO)[C@@H](O)[C@@]1(O)[C@H]4[C@H]([C@H](C)[C@@H]1OC(=O)c1ccccc1)[C@H](C)CCCCCC[C@H]5O)O2 [Gnidimacrin],concentration acting as PKC activator,PKC,0.3 nM
same,inhibition of Cdk2,[1],100%
